# Source: PubChem BioAssay AID504648 (National Center for Advancing Translational Sciences (NCATS), 2011)
# Out of some 390,000 compounds screened, about 610 (0.16%) were called active. The shares of active, inactive and inconclusive entries below differ from those in the screen. Calls come from the whole dose curve; as a rule, active = well fitted inhibition curve with a large enough effect; inconclusive = small, poorly fitted or top-dose-only effect, or effect the other way, or another doubt; inactive = no such curve, though single readings can be large or run the other way. Potencies beside an inconclusive call are fits to weak or partial responses and may not hold up.
# Experiment: Nrf2 qHTS screen for inhibitors: counterscreen for cytotoxicity
# Conditions: A549 ARE-Fluc cells, CellTiter-Fluor viability, 18-24 h; series mostly up to 46 µM
# Summary of the method: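 A549 ARE-Fluc cells in 5% FBS OPTI-MEM, 5000 cells/well, rested 2 h then exposed to compounds in concentration-response for 18-24 h at 37 °C. Viability by CellTiter-Fluor fluorescence (Ex 405/Em 525) after 30 min; luciferase luminescence (BugLite, 15 min, RT) read afterwards.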
# Potency is the fitted concentration of half-maximal effect.
row,SMILES,Potency
1,CCCOc1ccc(CNC(=O)CCCn2ncn3c(cc4sc(CC)cc43)c2=O)cc1,"inconclusive: 32.6 µM [falling, single point]"
2,CCCC(=O)NC1=C(Cl)C(=O)c2ccccc2C1=O,"inconclusive: 23.1 µM [activator, partial curve, poor fit]"
3,Cc1cccc(C(=O)Nc2cccc(NC(=O)c3ccccc3)c2)c1,"inconclusive: 23.1 µM [falling, partial curve, poor fit]"
4,CCOc1ccc2nc(COC(=O)c3ccncc3)c(C(=O)c3ccccc3)[n+]([O-])c2c1,inactive
5,Cc1cc(C(=O)CSc2nnnn2-c2ccc(Cl)cc2)c(C)n1CC1CCCO1 (configuration not stated),"inconclusive: 20.6 µM [falling, partial curve, poor fit]"
6,Cc1ccc(-n2c(-c3ccco3)nc3nc4ccccc4nc32)cc1F,inactive
7,O=S(=O)(c1ccc(N2CC=C(c3ccccc3)CC2)nc1)N1CCCC1,inactive
8,COc1ccc(NC(=O)/C(C#N)=C\c2ccc(-c3cccc(C(=O)O)c3C)o2)cc1,"inconclusive: 20.6 µM [falling, partial curve]"
9,CCOC(=O)C(C)Sc1nc(C2CC2)cc(C(F)(F)F)c1C#N (configuration not stated),"inconclusive: 2.31 µM [activator, partial curve, poor fit]"
10,CCOC(=O)C1(C)C=C(Nc2ccc(NC(C)=O)cc2)C(=O)N1c1ccc(NC(C)=O)cc1 (configuration not stated),inactive
11,COc1ccc(-n2nc(C(=O)NCC(=O)N3CCCCC3)c3ccccc3c2=O)c(OC)c1,inactive
12,CCCc1nnc(SCC(=O)Nc2cccc(Cl)c2Cl)o1,inactive
13,CCCCN1C(=O)/C(=C/C=C2\SCCN2C)SC1=S,"inconclusive: 11.6 µM [falling, partial curve, poor fit]"
14,Cc1ccc(S(=O)(=O)N(Cc2ccccc2)c2ccccc2C(=O)NCc2ccco2)cc1,"inconclusive: 3.26 µM [falling, full curve]"
15,CS(=O)(=O)c1cccc(C(=O)N(CCc2ccccc2)Cc2cccs2)c1,inactive
16,COc1ccc(/C=C2\SC(=O)N(CC(=O)Nc3cccc(C)c3)C2=O)cc1O,"inconclusive: 18.4 µM [falling, single point]"
17,Cc1ccc(-n2c3c(cc(C(=O)Nc4ccccc4C(N)=O)c2=O)C(=O)CC(C)(C)C3)cc1,inactive
18,CN1C(=O)C(N=Nc2ccccc2C(=O)O)N(C)C1=S (configuration not stated),"inconclusive: 16.4 µM [falling, partial curve]"
19,COc1ccc(NC(=S)NNc2ccc(S(=O)(=O)Nc3ccccc3C(=O)O)cc2[N+](=O)[O-])cc1,"inconclusive: 18.4 µM [falling, partial curve, poor fit]"
20,O=C(Nc1ccc2c(c1)OCO2)C1CCCN1C(=O)OCc1ccccc1 (configuration not stated),inactive
21,CCn1c(COc2ccccc2C)nnc1SCC(=O)CC(=O)Nc1ccccc1OC,inactive
22,COc1ccc(NC(=O)CN2CCN(S(=O)(=O)c3ccc(Cl)cc3)CC2)cc1,inactive
23,COc1cc(CNC2CCCCCCC2)cc(Br)c1OCC#N,inactive

row,SMILES,Potency
1,CCN(CC)CCCNc1cc(C(F)(F)F)c(C#N)c2nc3ccccc3n12,"inconclusive: 23.1 µM [activator, single point]"
2,CCOC(=O)C1=C(O)/C(=C/c2cn(CC(=O)NCC3CCCO3)c3ccccc23)SC1=Nc1ccc(C)cc1 (configuration not stated),"inconclusive: 8.2 µM [falling, single point]"
3,Cc1cc(C(=O)NCc2ccccc2Cl)n(-c2ccccc2)n1,"inconclusive: 1.03 µM [activator, partial curve, poor fit]"
4,CC(=O)c1c(C(C)=O)c(C)n(-c2nc(-c3ccc(Br)cc3)c(C)s2)c1C,"inconclusive: 29.1 µM [falling, single point]"
5,COCCn1c(SCC(=O)Nc2cccc(C(=O)OC)c2)nc2ccccc2c1=O,"inconclusive: 32.6 µM [falling, partial curve, poor fit]"
6,N=c1c2c(n(Cc3ccc(Cl)c(Cl)c3)c3c1CCC3)CCCC2,"inconclusive: 6.51 µM [falling, partial curve]"
7,COc1ccc(NC(=O)/C(C#N)=C\c2ccc(-c3cc(C(=O)O)ccc3C)o2)cc1,"inconclusive: 23.1 µM [falling, partial curve, poor fit]"
8,N=C1C(c2nc3ccccc3s2)=C(O)CN1NC(=O)c1ccc([N+](=O)[O-])cc1,"inconclusive: 29.1 µM [falling, single point]"
9,CSc1ccc(CN(C)C(=O)CNC(=O)c2sc3ccccc3c2Cl)cc1,"inconclusive: 7.31 µM [falling, partial curve, poor fit]"
10,Cc1ccc(C(=O)/C=C\Nc2ccc(C)c(C)c2)cc1,inactive
11,CCN1CCN(c2cc(C)c3cc(NC(=O)c4ccncc4)ccc3n2)CC1,"inconclusive: 10.3 µM [falling, partial curve, poor fit]"
12,O=[N+]([O-])c1ccc(NC(=S)NCCc2ccc(Cl)cc2)cc1,"inconclusive: 25.9 µM [falling, single point]"
13,Cc1cc(NC(=O)CCNS(=O)(=O)c2cccc3nsnc23)ccc1Br,inactive
14,Nc1nc(-c2ccco2)nn1S(=O)(=O)c1ccccc1,inactive
15,CN(CCO)c1cc(N2CCCCC2)c2nonc2c1[N+](=O)[O-],"inconclusive: 20.6 µM [falling, partial curve, poor fit]"
16,CCOC(=O)c1ccc(Oc2cc(C)nc(SC)n2)cc1,"inconclusive: 25.9 µM [falling, partial curve, poor fit]"
17,CCNc1c([N+](=O)[O-])c(=O)n(CC)c2ccccc12,inactive
18,Cc1nc(S/C(C(=O)O)=C2/C(=O)Nc3ccccc32)n[nH]1,"inconclusive: 11.6 µM [falling, partial curve, poor fit]"
19,CCOc1ccc(N(Cc2ccccc2)C(=O)c2nc(S(C)(=O)=O)ncc2Cl)cc1,"inconclusive: 29.1 µM [falling, single point]"
20,Cc1ccc(-n2c(Cc3ccccc3)nnc2SCc2nc(-c3cccs3)no2)cc1C,"inconclusive: 23.1 µM [falling, single point]"
21,CCOC(=O)c1cnc(-n2nc(C)cc2C)nc1NC1CCCCC1,"inconclusive: 23.1 µM [falling, single point]"
22,O=C(Nc1ccc(N=Nc2ccccc2)cc1)c1ccc(Cl)cc1Cl,"inconclusive: 11.6 µM [falling, partial curve, poor fit]"
23,COc1cc(NC(=O)c2ccc(OC)c([N+](=O)[O-])c2)ccc1NC(=O)c1cccs1,inactive

row,SMILES,Potency
1,Cc1ccc(C(=O)NCCc2nnc(SCC(=O)Nc3nc(-c4ccccc4)cs3)n2C)cc1,"inconclusive: 29.1 µM [falling, single point]"
2,Cc1nnc(NC(=O)CSc2nnc(CCNC(=O)c3ccccc3F)n2C)s1,"inconclusive: 0.231 µM [activator, partial curve, poor fit]"
3,CCN(CC)S(=O)(=O)c1ccc(Cl)c(C(=O)NC)c1,inactive
4,O=C(Nc1ccc([N+](=O)[O-])cc1)Nc1ccc(OC(F)F)c(Cl)c1,"inconclusive: 20.6 µM [falling, single point]"
5,Cc1ccc(S(=O)(=O)NC(=O)NN2CC3CCCC3C2)cc1 (configuration not stated),inactive
6,COCCNC(=O)Nc1ccc2nc(-c3ccco3)c(-c3ccco3)nc2c1,"inconclusive: 18.4 µM [activator, partial curve, poor fit]"
7,Cc1cccc(NC(=O)COC(=O)c2ccc(S(=O)(=O)N3CCCCCC3)cc2)c1,inactive
8,Cc1sc(NC(=O)c2cc(-c3ccc(Cl)cc3)nc3ccccc23)c(C(N)=O)c1C,"inconclusive: 18.4 µM [falling, single point]"
9,CCCn1c(CN2CCN(C(=O)OCC)CC2)nc2cc(NC(=O)CC)ccc21,"inconclusive: 5.8 µM [falling, partial curve, poor fit]"
10,O=C1c2cc(O)cc(O)c2C(=O)c2c1cc(O)c([C@@H](CO)CCO)c2O,"inconclusive: 13 µM [falling, partial curve, poor fit]"
11,O=c1[nH]c2ccccc2n1CCC1CCCCC1,"inconclusive: 20.6 µM [falling, single point]"
12,CCOC(=O)c1sc(NC(=O)c2cc(-c3ccccc3C)nc3ccccc23)c(C#N)c1C,"inconclusive: 5.8 µM [falling, full curve]"
13,Cc1cc(C2N=C(N)Nc3nc4ccccc4n32)c(C)n1-c1ccccc1Cl (configuration not stated),inactive
14,CN(CC(=O)Nc1ccccc1Br)C(=O)c1ccccc1OCc1ccccc1Cl,"inconclusive: 20.6 µM [falling, single point]"
15,O=C(NNc1ccccc1)c1sc2ccccc2c1Cl,inactive
16,CCC(Oc1ccccc1)C(=O)Nc1nnc(C)s1 (configuration not stated),inactive
17,CC1CCc2c(sc(NC(=O)c3cccs3)c2C(=O)O)C1 (configuration not stated),"inconclusive: 8.2 µM [falling, partial curve, poor fit]"
18,CCCCNc1c(-c2ccc(OC)c(Sc3ccc(OC)cc3)c2)nc2ccccn12,"inconclusive: 29.1 µM [falling, single point]"
19,Cc1ccc(C(=O)Nc2sc3c(c2C(=O)O)CCCCC3)o1,"inconclusive: 11.6 µM [falling, partial curve, poor fit]"
20,Cc1ccc(C)c(N2CCN(S(=O)(=O)c3ccc4[nH]c(=O)c(=O)[nH]c4c3)CC2)c1,"inconclusive: 14.6 µM [activator, partial curve, poor fit]"
21,CC(C)CN(C(=O)CSc1ccc2c(c1)OCCO2)c1c(N)n(CC(C)C)c(=O)[nH]c1=O,inactive

# Laid out differently: two of the compounds above
row	SMILES	Potency
5	Cc1ccc(S(=O)(=O)NC(=O)NN2CC3CCCC3C2)cc1 (configuration not stated)	inactive
16	CCC(Oc1ccccc1)C(=O)Nc1nnc(C)s1 (configuration not stated)	inactive
